± gives the standard deviation. The entries are a selection whose mix differs from that of the whole data set. Many entries were measured with a wide error.
test system: MIWI (PIWIL1) piRISC loaded with L1MC piRNA (30 nt); test: pre-steady-state target cleavage rate (min^-1); MIWI and MILI are mouse PIWI proteins and EfPiwi is from a freshwater sponge; tags in brackets are library labels; higher = faster piRNA-guided slicing of the target; settings: guide: L1MC piRNA 5'p-UAACUAAAUACUAUGCAAGCUGUAGGUCCU; auxiliary factor: 500 nM mouse GTSF1
Outline: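 Three pooled Cleave-'n-Seq trials supplied the data, with k3 capped at 0.0001 min^-1. In each, […] transcribed, DNA-blocked target RNA library and 1 nM active affinity-purified piRISC with one synthetic guide reacted in HEPES–potassium acetate buffer at 33 °C for 0–8 or 0–960 min, with or without 500 nM GTSF1 partner protein. Uncleaved targets were sequenced and normalised to depth and to weakly complementary targets. A burst-and-steady-state fit provided the pre-steady-state cleavage rate.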
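Further: 1 nM active piRISC with 0.1 nM target library at 33 °C single turnover.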

Question: UCCUGGAUGUCGUUGCAUAAGUAUUUAGUUA was tested. Which “pre-steady-state target cleavage rate” value did it give?
Answer: Its value is 0.000432 ± 0.019.

Question: With UCCUGGAUGUCGUUGCUUAGUAUUUUGUUA as the sequence, how does the “pre-steady-state target cleavage rate” value read?
Answer: Its value is 0.000157 ± 0.028.

Question: With UCCUGGAUGUCGAACGUUAGUUAAUAGUUA as the sequence, how does the “pre-steady-state target cleavage rate” value read?
Answer: Its value is 0.000277 ± 0.026.

same assay, conditions: guide: L1MC piRNA 5'p-UAACUAAAUACUAUGCAAGCUGUAGGUCCU; auxiliary factor: none (no GTSF1)

Question: With UCCUGGAUGUCGUCUGCAUAGUAUUUAGUUA as the sequence, how does the “pre-steady-state target cleavage rate” value read?
Answer: The value was 0.00165 ± 0.0045.

Question: UCCUGGAUGUCGAACGAUGGUAUUUAGUUA was tested. Which “pre-steady-state target cleavage rate” value did it give?
Answer: The value was 0.000465 ± 0.012.

Question: How did the “pre-steady-state target cleavage rate” value turn out when UCCUGGUACAGCUUGCAUAGUUUUUACAAA was run?
Answer: Its value is 0.00166 ± 0.0055.

Question: UCCUGGAUGUCGAAGCAUAGUAUUAGUUA was tested. Which “pre-steady-state target cleavage rate” value did it give?
Answer: Its value is 0.000225 ± 0.015.

Question: With UCCUGGUUGUGCUUGCAUAGUAUUUUCAAA as the sequence, how does the “pre-steady-state target cleavage rate” value read?
Answer: Its value is 0.00216 ± 0.0048.

Question: Which “pre-steady-state target cleavage rate” value does the source give for UCCUGGAACAGCAACCAUAGUAUUUAGUUA here?
Answer: The value was 0.00134 ± 0.0045.

Question: UCCUGGAUGUCGAACCAUAUGUAUUUAGUUA was tested. Which “pre-steady-state target cleavage rate” value did it give?
Answer: The value was 0.000268 ± 0.029.

Question: UCCUGGAACAGCUUGCAUAGUUAAUACAAA was tested. Which “pre-steady-state target cleavage rate” value did it give?
Answer: The value was 0.00131 ± 0.0059.

Question: With UCCUGGAUGUCGAACGUUACAAUUUAGUUA as the sequence, how does the “pre-steady-state target cleavage rate” value read?
Answer: Its value is 0.000324 ± 0.016.

Question: Which “pre-steady-state target cleavage rate” value does the source give for UCCUGGAUGUGCUACCAUAGUAUUUAGAAA here?
Answer: The value was 0.000541 ± 0.011.

Question: How did the “pre-steady-state target cleavage rate” value turn out when UCCUGGAUGUCGAUGCCAUAGUAUUUAGUUA was run?
Answer: The value was 0.00058 ± 0.013.

Question: Which “pre-steady-state target cleavage rate” value does the source give for UCCUCCUACAGCUUCGAUAGUAUUUAGUUA here?
Answer: The value was 0.00146 ± 0.0024.

Question: UCCUGGAUGUCGUUGCCUAGUAUUUAGUUA was tested. Which “pre-steady-state target cleavage rate” value did it give?
Answer: Its value is 0.00141 ± 0.0052.

Question: With UCCUGGAUGUCGAAGCAUAGUAUUAAGAUA as the sequence, how does the “pre-steady-state target cleavage rate” value read?
Answer: Its value is 0.000377 ± 0.013.

Question: With UCCUGGAACAGCUUGCAUAGUAUUUAUUA as the sequence, how does the “pre-steady-state target cleavage rate” value read?
Answer: The value was 0.00253 ± 0.0034.

Question: For UCCUGGAUGUCCUUGCUUACUAUUUAGUUA, which “pre-steady-state target cleavage rate” value is on record?
Answer: The value was 0.000937 ± 0.0072.

Question: With UCCUGGAACAGCAAGCAUAGUAUUUAGAAA as the sequence, how does the “pre-steady-state target cleavage rate” value read?
Answer: The value was 0.000915 ± 0.0045.

Question: “UCCUGGAUGUCGUUGCAUUCAUAAAUCAAA [g13:g18:cont:t1A]” was tested. Which “pre-steady-state target cleavage rate” value did it give?
Answer: Its value is 0.000108 ± 0.036.

Question: For UCCUGCUACAGCUUGCAUAGUUAAUUCAAA, which “pre-steady-state target cleavage rate” value is on record?
Answer: Its value is 0.00075 ± 0.0098.

Question: UCCUGGUACAGCUUGCAUAGAUAUUUAGUUA was tested. Which “pre-steady-state target cleavage rate” value did it give?
Answer: Its value is 0.00142 ± 0.0069.

Question: For UCCUGGAUGUCGAAGCAUAGUAUAUAGAUA, which “pre-steady-state target cleavage rate” value is on record?
Answer: Its value is 0.00043 ± 0.014.

Question: With UCCUGGUACAGCAAGCAUAGUAUUUACAAA as the sequence, how does the “pre-steady-state target cleavage rate” value read?
Answer: The value was 0.00119 ± 0.0072.

Question: For UCCUGCUACAGCAACCAUAGUAUUUAGUUA, which “pre-steady-state target cleavage rate” value is on record?
Answer: The value was 0.000985 ± 0.007.

Question: UCCUCCUACUGCUUGCAUAGUAUUUUCAAA was tested. Which “pre-steady-state target cleavage rate” value did it give?
Answer: Its value is 0.00186 ± 0.0022.

Question: How did the “pre-steady-state target cleavage rate” value turn out when UCCUGCUACAGCUACCAUAGUAUUUAGUUA was run?
Answer: The value was 0.002 ± 0.0035.

Question: With UCCUGGAUGUCCAUGCAUAGUAUUAAGUUA as the sequence, how does the “pre-steady-state target cleavage rate” value read?
Answer: Its value is 0.00079 ± 0.012.

Question: With UCCUGGAUGUCGAAGCAUAGUAUUUAGAUUA as the sequence, how does the “pre-steady-state target cleavage rate” value read?
Answer: Its value is 0.000153 ± 0.021.

Question: For UCCUGGAUGUCGAUGGAUAGUAAUUAGUUA, which “pre-steady-state target cleavage rate” value is on record?
Answer: The value was 0.000469 ± 0.017.

Question: With UCCUGGAUGUCGAACCAUAGUAUUUAGGUA as the sequence, how does the “pre-steady-state target cleavage rate” value read?
Answer: Its value is 0.000232 ± 0.02.

Question: How did the “pre-steady-state target cleavage rate” value turn out when UCCUGGAUGUCGUUGCAUACUAAUUAGUUA was run?
Answer: Its value is 0.000891 ± 0.0085.

Question: With UCCUGGAUGUCGAACGUAAUUAUUUAGUUA as the sequence, how does the “pre-steady-state target cleavage rate” value read?
Answer: The value was 0.000173 ± 0.01.

Question: UCCUGCUACAGCUUGCAUAGUAUAUAGAAA was tested. Which “pre-steady-state target cleavage rate” value did it give?
Answer: The value was 0.00119 ± 0.0042.

Question: How did the “pre-steady-state target cleavage rate” value turn out when UCCUGGAUGUCGAUGCAUAGUAUUUUCUUA was run?
Answer: Its value is 0.000688 ± 0.0083.

Question: UCCUGCUACAGCUUGCAUAGAUUUUACAAA was tested. Which “pre-steady-state target cleavage rate” value did it give?
Answer: Its value is 0.000246 ± 0.017.

Question: Which “pre-steady-state target cleavage rate” value does the source give for UCCUGGAACAGCUUGCUAUGUAUUUAGAAA here?
Answer: The value was 0.000498 ± 0.0049.

Question: UCCUGGUACAGGUUGCAUAGUAUUUACAAA was tested. Which “pre-steady-state target cleavage rate” value did it give?
Answer: Its value is 0.00182 ± 0.0033.

Question: How did the “pre-steady-state target cleavage rate” value turn out when UCCUGGAUGUCGAAGCAUAGUACUUUAGUUA was run?
Answer: The value was 0.000804 ± 0.0066.
